Data from US8986712B2, “Peptides derived from HIV-1 gp41 transmembrane domain for t-immunomodulation” (Yeda Research and Development Co., Ltd., priority 2009, dated 2015).
Part of at least one peptide drawing is inferred or uncertain, most often the ends. Ends that are not written are not given here.

Experiments:
[1] = system: T-cell line specific to MOG p35-55; assay: T-cell proliferation induced by MOG 35-55 peptide and APC (H3-thymidine uptake); type: cell-based, mice; conditions: 5, 25 and 50 μg/ml peptide, 3 days
Experimental: T-cells were plated onto round 96-well plates in medium containing RPMI-1640 supplemented with 2.5% fetal calf serum (FCS), 100 U/ml penicillin, 100 μg/ml streptomycin, 50 μM 2β-mercaptoethanol, and 2 mM L-glutamine. 12×10^4 cells of the T-cell line specific to MOG p35-55, 5×10^5 irradiated (3000 rad) spleen cells (APC), and 10 μg/ml of MOG p35-55 were added to each well. In addition, peptides corresponding to the gp41 TMD region were added. Each determination was made at least in triplicate. […]
For some experiments, T cells were activated with immobilized anti-CD3 antibodies (Kaleeba et al., 1998, Int. Immunol. 10, 453-461) or PMA/ionomycin as described (Wang et al., 2002 Clin. Immunol. 105, 199-207). After 72 hours, at 37° C. in a 7.5% CO2 humidified atmosphere, the T-cells were pulsed with 1 μCi (H^3) thymidine, with a specific activity of 5.0 Ci/mmol, for 7 hours, and (H^3) thymidine incorporation was measured using a 96-well plate beta-counter. The mean cpm±Standard Error was calculated for each triplicate or quadruplicate. […]
Lymph node cells were prepared from MOG 35-55/CFA immunized mice and their T cell response to the MOG 35-55 peptide was studied. […] The T cell line proliferative response was determined after 3 days of incubation using a H3-thymidine uptake assay. […]

[2] = system: T-cells activated with anti-CD3; assay: T-cell activation induced by mitogenic anti-CD3 antibodies; type: cell-based, mice; conditions: 1 μg/ml anti-CD3 and APC; 50 μg/ml peptide
Experimental: For some experiments, T cells were activated with immobilized anti-CD3 antibodies (Kaleeba et al., 1998, Int. Immunol. 10, 453-461) or PMA/ionomycin as described (Wang et al., 2002 Clin. Immunol. 105, 199-207). After 72 hours, at 37° C. in a 7.5% CO2 humidified atmosphere, the T-cells were pulsed with 1 μCi (H^3) thymidine, with a specific activity of 5.0 Ci/mmol, for 7 hours, and (H^3) thymidine incorporation was measured using a 96-well plate beta-counter. The mean cpm±Standard Error was calculated for each triplicate or quadruplicate. The results of T-cell proliferation experiments are shown as the percentage of T-cell proliferation inhibition triggered by the antigen in the absence of gp41 TMD peptides.
Mitogenic anti-CD3 antibodies activate CD3 signaling regardless of the presence or absence of TCR (Keppler et al., 2006, J. Leukoc. Biol. 79, 616-627). Thus, T-cells were activated with 1 μg/ml anti-CD3 and APC in the presence of 50 μg/ml gp41 TMD or gp41 TM11-19, and the proliferative responses were assayed. The TCRα Core Peptide (GLRILLLKV; SEQ ID NO: 37; TCRα CP) served as a control peptide.

GLVGLRIVF-NH2 [TM11-19, GLVGLRIVF]
inhibition of T-cell proliferation [1]: strongly inhibit T-cell proliferation
inhibition of T-cell activation by mitogenic anti-CD3 antibodies [2]: inhibited
